This note sets out measurements from US20150240311A1.

Results are given in words; binding and its absence hold for the method and conditions named. Binding seen in cells or lysates may run through a third protein. Some results given as binding are weak or reduced against the parent protein; the word gives no strength. Where a sequence is shown, tags or fusion partners need not be part of it.

In assay [1] the target is T1, HA-EBF3 (UniProt Q9H4W6).
T1 sequence (looked up): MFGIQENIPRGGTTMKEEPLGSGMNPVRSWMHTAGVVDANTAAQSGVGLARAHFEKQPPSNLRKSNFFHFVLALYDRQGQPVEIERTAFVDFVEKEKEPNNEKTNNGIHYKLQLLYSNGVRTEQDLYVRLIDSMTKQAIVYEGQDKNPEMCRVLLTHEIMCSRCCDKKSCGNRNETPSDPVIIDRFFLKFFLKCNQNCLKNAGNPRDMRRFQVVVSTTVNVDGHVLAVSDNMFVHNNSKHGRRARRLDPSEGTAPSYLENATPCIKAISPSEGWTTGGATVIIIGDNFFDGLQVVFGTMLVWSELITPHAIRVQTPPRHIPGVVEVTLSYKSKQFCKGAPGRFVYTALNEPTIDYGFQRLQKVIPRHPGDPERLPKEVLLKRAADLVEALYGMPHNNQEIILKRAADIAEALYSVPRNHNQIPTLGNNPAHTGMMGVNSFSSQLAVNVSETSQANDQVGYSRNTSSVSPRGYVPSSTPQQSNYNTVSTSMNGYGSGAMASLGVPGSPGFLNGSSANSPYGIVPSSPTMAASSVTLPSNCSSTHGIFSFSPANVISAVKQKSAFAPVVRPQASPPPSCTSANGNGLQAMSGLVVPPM
The assay can be described thus: co-immunoprecipitation, HA-EBF and FLAG-tagged fusion expressed in HEK293 cells.

Assay [2] addresses T1, HA-EBF3. Put plainly: co-immunoprecipitation and immunoblotting, HA-EBF and FLAG-tagged fusion expressed in HEK293 cells, 24 hour post-transfection. (In general: A western blot detects proteins with antibodies after separation by electrophoresis.)

B1: FLAG-UBR5-ZNF423 fusion protein (protein, not shown: small tags and cut ends)
chain: MTEEGINHECKLCNQMFDSPAKLLCHLIEHSFEGMGGTFKCPVCFTVFVQANKLQQHIFAVHGQEDKIYDCSQCPQKFFFQTELQNHTMSQHAQ
B1: the binding result in assay [1] and in assay [2] was “binds” in each case.
